# Experimental data: the supplement of paper PMC8728848
# The other results are listed elsewhere or left out.
# B1: Clec39 (Caenorhabditis elegans) (protein)
# chain: MTSFYDNSSSSSKPVPLKTSRAQKIQILIFDNWKLILYGAISTLILVLAIMFSTLFFALPAANCDENSEPTKYYTTNAEITTTITTTNQKTTSTASSHLTTISSSATQIYSESSSSSTSQSTFTQSPPEISTTTIAPSDFSCQHGFTLVNNKCWKLVTSNQARPDADKICNGYGGATLFSIKSEQDNRAMIHFVKGQDIDFLWSGLLCSAGEPISCIWDIENGSTANYSNFADGFPNIVYGNCVYFITSGDEAGQWGNEQCGQVMNFVCELPATFQGKDGCKNNYEKSCYLRFDLNLTVPQAQNFCLEKCANLVSIHSANEVRFIMTIYDFIGEILIGALAPAQDFIYWLDGTPANYNNLKFFYNSTCVHMTVAPGMQNVGKWFTRFCTETGKFLCKRSIKNSCT
# What was measured:
# Experiment in all cases: glycan array binding signal (z-score within array); higher = stronger binding
# Details in all cases: glycan notation: IUPAC condensed, linker removed
# [1] = target: Gal(b1-3)GlcNAc(b1-6)[Gal(b1-3)]GalNAc
# Method in brief: (§1)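 Columns mapping to the same glycan were averaged after glycan names were converted to IUPAC-condensed notation. The data come from 3228 arrays in the Consortium for Functional Glycomics database, limited to those with an available protein sequence. Binding is reported as a within-array Z-score averaged across arrays of one protein sequence and across linkers.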
# Gal(b1-3)GlcNAc6S = target: Gal(b1-3)GlcNAc6S
# Method in brief: as §1
# [2] = target: Gal(b1-3)[Fuc(a1-4)]GlcNAc
# Method in brief: as §1
# [3] = target: Gal(b1-3)[Fuc(a1-4)]GlcNAc(b1-2)Man
# Method in brief: as §1
# [4] = target: Gal(b1-3)[Fuc(a1-4)]GlcNAc(b1-2)Man(a1-3)[Gal(b1-3)[Fuc(a1-4)]GlcNAc(b1-2)Man(a1-6)]Man(b1-4)GlcNAc(b1-4)[Fuc(a1-6)]GlcNAc
# Method in brief: as §1
# [5] = target: Gal(b1-3)[Fuc(a1-4)]GlcNAc(b1-3)Gal(b1-3)[Fuc(a1-4)]GlcNAc
# Method in brief: as §1
# [6] = target: Gal(b1-3)[Fuc(a1-4)]GlcNAc(b1-3)Gal(b1-4)[Fuc(a1-3)]GlcNAc
# Method in brief: as §1
# [7] = target: Gal(b1-3)[Fuc(a1-4)]GlcNAc(b1-6)GalNAc
# Method in brief: as §1
# [8] = target: Gal(b1-3)[GlcNAc(b1-6)]GalNAc
# Method in brief: as §1
# [9] = target: Gal(b1-3)[Neu5Ac(a2-6)]GalNAc
# Method in brief: as §1
# [10] = target: Gal(b1-3)[Neu5Ac(a2-6)]GlcNAc(b1-4)Gal(b1-4)Glc
# Method in brief: as §1
# [11] = target: Gal(b1-3)[Neu5Ac(b2-6)]GalNAc
# Method in brief: as §1
# Gal(b1-4)Gal = target: Gal(b1-4)Gal
# Method in brief: as §1
# [12] = target: Gal(b1-4)GalNAc(a1-3)[Fuc(a1-2)]Gal(b1-4)GlcNAc
# Method in brief: as §1
# [13] = target: Gal(b1-4)GalNAc(b1-3)[Fuc(a1-2)]Gal(b1-4)GlcNAc
# Method in brief: as §1
# Gal(b1-4)Glc = target: Gal(b1-4)Glc
# Method in brief: as §1
# Gal(b1-4)Glc6S = target: Gal(b1-4)Glc6S
# Method in brief: as §1
# Gal(b1-4)GlcNAc = target: Gal(b1-4)GlcNAc
# Method in brief: as §1
# [14] = target: Gal(b1-4)GlcNAc(a1-6)Gal(b1-4)GlcNAc
# Method in brief: as §1
# Gal(b1-4)GlcNAc(b1-2)Man = target: Gal(b1-4)GlcNAc(b1-2)Man
# Method in brief: as §1
# [15] = target: Gal(b1-4)GlcNAc(b1-2)Man(a1-3)Man(b1-4)GlcNAc(b1-4)GlcNAc
# Method in brief: as §1
# [16] = target: Gal(b1-4)GlcNAc(b1-2)Man(a1-3)[Gal(b1-4)GlcNAc(b1-2)Man(a1-6)]Man(b1-4)GlcNAc(b1-4)GlcNAc
# Method in brief: as §1
# [17] = target: Gal(b1-4)GlcNAc(b1-2)Man(a1-3)[Gal(b1-4)GlcNAc(b1-2)Man(a1-6)]Man(b1-4)GlcNAc(b1-4)[Fuc(a1-6)]GlcNAc
# Method in brief: as §1
# [18] = target: Gal(b1-4)GlcNAc(b1-2)Man(a1-3)[Gal(b1-4)GlcNAc(b1-2)Man(a1-6)][Gal(b1-4)GlcNAc(b1-4)]Man(b1-4)GlcNAc(b1-4)[Fuc(a1-6)]GlcNAc
# Method in brief: as §1
# [19] = target: Gal(b1-4)GlcNAc(b1-2)Man(a1-3)[Gal(b1-4)GlcNAc(b1-2)Man(a1-6)][GlcNAc(b1-4)]Man(b1-4)GlcNAc(b1-4)[Fuc(a1-6)]GlcNAc
# Method in brief: as §1
# [20] = target: Gal(b1-4)GlcNAc(b1-2)Man(a1-3)[GlcNAc(b1-2)Man(a1-6)]Man(b1-4)GlcNAc(b1-4)GlcNAc
# Method in brief: as §1
# [21] = target: Gal(b1-4)GlcNAc(b1-2)Man(a1-3)[GlcNAc(b1-4)][Gal(b1-4)GlcNAc(b1-2)Man(a1-6)]Man(b1-4)GlcNAc(b1-4)GlcNAc
# Method in brief: as §1
# [22] = target: Gal(b1-4)GlcNAc(b1-2)Man(a1-3)[Man(a1-6)]Man(b1-4)GlcNAc(b1-4)GlcNAc
# Method in brief: as §1
# [23] = target: Gal(b1-4)GlcNAc(b1-2)Man(a1-6)Man(b1-4)GlcNAc(b1-4)GlcNAc
# Method in brief: as §1
# [24] = target: Gal(b1-4)GlcNAc(b1-2)Man(a1-6)[GlcNAc(b1-2)Man(a1-3)]Man(b1-4)GlcNAc(b1-4)GlcNAc
# Method in brief: as §1
# [25] = target: Gal(b1-4)GlcNAc(b1-2)Man(a1-6)[Man(a1-3)]Man(b1-4)GlcNAc(b1-4)GlcNAc
# Method in brief: as §1
# [26] = target: Gal(b1-4)GlcNAc(b1-2)[Gal(b1-4)GlcNAc(b1-4)]Man(a1-3)[Gal(b1-4)GlcNAc(b1-2)Man(a1-6)]Man(b1-4)GlcNAc(b1-4)GlcNAc
# Method in brief: as §1
# [27] = target: Gal(b1-4)GlcNAc(b1-2)[Gal(b1-4)GlcNAc(b1-4)]Man(a1-3)[Gal(b1-4)GlcNAc(b1-2)[Gal(b1-4)GlcNAc(b1-6)]Man(a1-6)]Man(b1-4)GlcNAc(b1-4)GlcNAc
# Method in brief: as §1
# [28] = target: Gal(b1-4)GlcNAc(b1-2)[Gal(b1-4)GlcNAc(b1-4)]Man(a1-3)[GlcNAc(b1-4)][Gal(b1-4)GlcNAc(b1-2)Man(a1-6)]Man(b1-4)GlcNAc(b1-4)GlcNAc
# Method in brief: as §1
# [29] = target: Gal(b1-4)GlcNAc(b1-2)[Gal(b1-4)GlcNAc(b1-4)]Man(a1-3)[GlcNAc(b1-4)][Gal(b1-4)GlcNAc(b1-2)[Gal(b1-4)GlcNAc(b1-6)]Man(a1-6)]Man(b1-4)GlcNAc(b1-4)GlcNAc
# Method in brief: as §1
# [30] = target: Gal(b1-4)GlcNAc(b1-2)[Gal(b1-4)GlcNAc(b1-6)]Man(a1-6)[Gal(b1-4)GlcNAc(b1-2)Man(a1-3)]Man(b1-4)GlcNAc(b1-4)GlcNAc
# Method in brief: as §1
# [31] = target: Gal(b1-4)GlcNAc(b1-2)[Gal(b1-4)GlcNAc(b1-6)]Man(a1-6)[Gal(b1-4)GlcNAc(b1-2)Man(a1-3)]Man(b1-4)GlcNAc(b1-4)[Fuc(a1-6)]GlcNAc
# Method in brief: as §1
binder,measurement,setting,value
B1,glycan array binding signal (z-score),[1],-0.019
same,glycan array binding signal (z-score),Gal(b1-3)GlcNAc6S,-0.536
same,glycan array binding signal (z-score),[2],-0.069
same,glycan array binding signal (z-score),[3],0.559
same,glycan array binding signal (z-score),[4],-0.546
same,glycan array binding signal (z-score),[5],-1.29
same,glycan array binding signal (z-score),[6],0.602
same,glycan array binding signal (z-score),[7],0.035
same,glycan array binding signal (z-score),[8],-0.522
same,glycan array binding signal (z-score),[9],-0.557
same,glycan array binding signal (z-score),[10],-0.851
same,glycan array binding signal (z-score),[11],-0.659
same,glycan array binding signal (z-score),Gal(b1-4)Gal,-0.453
same,glycan array binding signal (z-score),[12],0.089
same,glycan array binding signal (z-score),[13],1.23
same,glycan array binding signal (z-score),Gal(b1-4)Glc,-0.058
same,glycan array binding signal (z-score),Gal(b1-4)Glc6S,0.767
same,glycan array binding signal (z-score),Gal(b1-4)GlcNAc,-0.525
same,glycan array binding signal (z-score),[14],-0.461
same,glycan array binding signal (z-score),Gal(b1-4)GlcNAc(b1-2)Man,-0.206
same,glycan array binding signal (z-score),[15],-0.931
same,glycan array binding signal (z-score),[16],-1.01
same,glycan array binding signal (z-score),[17],0.691
same,glycan array binding signal (z-score),[18],-0.793
same,glycan array binding signal (z-score),[19],-0.726
same,glycan array binding signal (z-score),[20],-0.612
same,glycan array binding signal (z-score),[21],-0.063
same,glycan array binding signal (z-score),[22],0.19
same,glycan array binding signal (z-score),[23],-0.965
same,glycan array binding signal (z-score),[24],-0.913
same,glycan array binding signal (z-score),[25],-0.475
same,glycan array binding signal (z-score),[26],0.129
same,glycan array binding signal (z-score),[27],-0.277
same,glycan array binding signal (z-score),[28],-0.762
same,glycan array binding signal (z-score),[29],-0.778
same,glycan array binding signal (z-score),[30],-0.353
same,glycan array binding signal (z-score),[31],-0.198

# Pulled one by one from the entries so far, 2 records:
binder,measurement,setting,value
B1,glycan array binding signal (z-score),Gal(b1-4)GlcNAc,-0.525
same,glycan array binding signal (z-score),Gal(b1-4)GlcNAc(b1-2)Man,-0.206
